Test results reported in PubChem BioAssay AID504467 (National Center for Advancing Translational Sciences (NCATS), 2011).
Screen size: about 330,000 compounds; about 7,700 (2.3%) were called active. The inconclusive results got no clear call from the source; some entries with a clear call stand among them for comparison. Calls follow the shape of the dose curve; as a rule, active = well fitted inhibition curve with a large enough effect; inconclusive = small, poorly fitted or top-dose-only effect, or effect the other way; inactive = flat fitted curve, though single readings scatter. Where the call is inconclusive, the potency comes from a doubtful curve fit.

Experiment: qHTS screen for small molecules that inhibit ELG1-dependent DNA repair in human embryonic kidney (HEK293T) cells expressing luciferase-tagged ELG1; also: nearly all actives have a fitted effect of over 55% in size
Conditions: HEK293T ELG1-luciferase reporter, luminescence, 16 h, DNA damage induced by 5-fluorouridine; series mostly up to 46.1 µM
Procedure, shortened: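 Step one: seed 2,000 cells per well. Step two: pin-transfer compound or DMSO alongside 5-fluorouridine. Step three: incubate 16 hr, 37 °C, 5% CO2. Step four: add ONE-Glo, wait 30 min, read luminescence.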
Potency is read from the fitted curve at half-maximal effect.

Question: With `COc1ccccc1-n1cnc2c(c1=O)c1nc3ccccc3nc1n2-c1ccc(C)c(C)c1` as the compound, how does the Potency read?
Answer: inconclusive: 18.4 µM [inhibitor, single point]

Question: Which Potency does the source give for `CC(=O)c1cc(C#N)c(SCc2ccc([N+](=O)[O-])cc2)nc1C` here?
Answer: inactive

Question: Which Potency does the source give for `COc1cc(/C=N/NC(=O)c2cc(-c3c(C)nn(-c4ccccc4)c3C)n[nH]2)ccc1O` here?
Answer: inconclusive: 14.6 µM [inhibitor, partial curve, poor fit]

Question: For `CSc1nnc(-c2ccccc2)o1`, which Potency is on record?
Answer: inconclusive: 29.1 µM [activator, single point]

Question: Which Potency does the source give for `Cc1ccc(S(=O)(=O)Oc2ccc(N3C(=O)C4C5CCC(C5)C4C3=O)cc2)cc1` (stereo not drawn) here?
Answer: active: 8.2 µM

Question: With `Cc1ccc(S(=O)(=O)N(Cc2ccccc2)c2ccccc2C(=O)N2CCCCC2)cc1` as the compound, how does the Potency read?
Answer: inconclusive: 29.1 µM [inhibitor, single point]

Question: Which Potency does the source give for `COc1ccccc1C(=O)Nc1cccc2cccnc12` here?
Answer: inactive

Question: For `CC(=O)N(CCC1(c2ccc(C)cc2)CCOC(C(C)C)C1)Cc1ccco1` (stereo not drawn), which Potency is on record?
Answer: inconclusive: 25.9 µM [inhibitor, single point]

Question: Which Potency does the source give for `O=C(Nc1nc(-c2ccc(-c3ccccc3)cc2)cs1)c1cnccn1` here?
Answer: inconclusive: 8.2 µM [activator, partial curve, poor fit]

Question: For `CC(=O)c1sc(NC(=O)c2cccc(C)c2)nc1C`, which Potency is on record?
Answer: inconclusive: 8.2 µM [activator, partial curve]

Question: With `O=C(O)c1ccccc1C(=O)Nc1ccc(Nc2ccc([N+](=O)[O-])cc2[N+](=O)[O-])cc1` as the compound, how does the Potency read?
Answer: inactive

Question: For `O=C(/C=C/c1cccc(F)c1)c1ccc(N2CCOCC2)cc1`, which Potency is on record?
Answer: inconclusive: 29.1 µM [activator, single point]

Question: Which Potency does the source give for `CCS(=O)(=O)N1CCN(c2ccc([N+](=O)[O-])c(NC(C)c3ccccc3)c2)CC1` (stereo not drawn) here?
Answer: inconclusive: 25.9 µM [inhibitor, partial curve, poor fit]

Question: Which Potency does the source give for `COc1cc([N+](=O)[O-])cc(/C=N/NC(=O)CSc2ccccn2)c1O` here?
Answer: inconclusive: 9.2 µM [inhibitor, partial curve, poor fit]

Question: Which Potency does the source give for `Cc1ccc(CNC(N)=S)cc1` here?
Answer: inconclusive: 20.6 µM [activator, single point]

Question: For `CCOC(=O)CNC(=O)c1ccc2[nH]c3ccccc3c2c1`, which Potency is on record?
Answer: inconclusive: 14.6 µM [activator, partial curve, poor fit]

Question: Which Potency does the source give for `O=C(C[n+]1ccc(-c2nnc3n2CCC3)cc1)c1ccc(Cl)cc1` here?
Answer: inactive

Question: For `COc1ccccc1NC(=O)Nc1nnc(C(C)C)s1`, which Potency is on record?
Answer: inconclusive: 14.6 µM [activator, partial curve]

Question: Which Potency does the source give for `CCCCn1c(/N=C/c2ccccc2NS(=O)(=O)c2ccc(C)cc2)nc2ccccc21` here?
Answer: inconclusive: 18.4 µM [inhibitor, single point]

Question: Which Potency does the source give for `COc1c(Br)cc([N+](=O)[O-])c(OC)c1C(=O)NC(=O)Nc1nc(C)cc(C)n1` here?
Answer: inactive

Question: With `O=C(O)COc1ccc(NC(=O)c2ccc3c(c2)C(=O)N(Cc2ccccc2)C3=O)cc1` as the compound, how does the Potency read?
Answer: inactive

Question: Which Potency does the source give for `O=C(CNC(=O)c1nn(Cc2ccccc2)c(=O)c2ccccc12)Nc1ccc(F)c(F)c1F` here?
Answer: inconclusive: 4.11 µM [inhibitor, partial curve, poor fit]

Question: With `O=C(NCCC1=CCCCC1)C1CCN(S(=O)(=O)c2ccc(Br)s2)CC1` as the compound, how does the Potency read?
Answer: inactive

Question: Which Potency does the source give for `CCOC(=O)C1CCCN(C(=O)c2cnn3c(C(F)F)cc(-c4ccc(C)cc4)nc23)C1` (stereo not drawn) here?
Answer: inconclusive: 20.6 µM [inhibitor, partial curve]

Question: With `COc1cc(OC)c(OC)cc1/C=N/NC(=S)NCC1CCCO1` (stereo not drawn) as the compound, how does the Potency read?
Answer: active: 18.4 µM

Question: With `COc1ccc(Oc2nc(C)nc3c2oc2ccccc23)cc1` as the compound, how does the Potency read?
Answer: inconclusive: 29.1 µM [inhibitor, single point]

Question: With `Cc1nc2c(ccc3nc(NC(=O)c4ccc(S(=O)(=O)N(C)C)cc4)sc32)s1` as the compound, how does the Potency read?
Answer: inactive

Question: For `CCCC[n+]1c2ccccc2cc2ccccc21`, which Potency is on record?
Answer: inconclusive: 18.3 µM [inhibitor, single point]

Question: Which Potency does the source give for `COc1cccc(/C=N/NC(=S)Nc2cccc(C(=O)O)c2)c1` here?
Answer: inconclusive: 14.6 µM [activator, partial curve]

Question: With `COC(=O)c1ccc(CN(C)S(=O)(=O)c2ccc(C)cc2)o1` as the compound, how does the Potency read?
Answer: inactive

Question: Which Potency does the source give for `COc1ccccc1-c1cnn2c(N3CCOCC3)cc(C)nc12` here?
Answer: inconclusive: 14.6 µM [activator, partial curve]

Question: Which Potency does the source give for `CCn1nnnc1NCc1cccn1C` here?
Answer: inconclusive: 16.4 µM [activator, partial curve, poor fit]

Question: With `COc1ccccc1C(=O)NCCC(=O)OCC(=O)Nc1ccc(S(N)(=O)=O)cc1` as the compound, how does the Potency read?
Answer: inconclusive: 13 µM [activator, partial curve, poor fit]

Question: Which Potency does the source give for `CCCNc1cc(=O)n(C)c(=O)n1C` here?
Answer: inconclusive: 25.9 µM [activator, partial curve, poor fit]

Question: Which Potency does the source give for `COC(=O)c1sc(N2C(=O)C(O)=C(C(=O)c3ccc(C)o3)C2c2ccc(F)cc2)nc1C` (stereo not drawn) here?
Answer: inconclusive: 23.1 µM [inhibitor, partial curve, poor fit]

Question: For `COc1ccc(Cl)cc1NC(=O)CN(C)CC(=O)Nc1c(C)n(C)n(-c2ccccc2)c1=O`, which Potency is on record?
Answer: active: 18.3 µM

Question: Which Potency does the source give for `Cc1ccc(-c2cc(-c3nnc(SCC(=O)NCC(C)C)n3N)c3ccccc3n2)cc1` here?
Answer: inactive

Question: With `O=C(COc1ncnc2c(Cl)cc(Cl)cc12)NCCC1=CCCCC1` as the compound, how does the Potency read?
Answer: inconclusive: 18.4 µM [activator, partial curve, poor fit]

Question: With `COCc1cc(CN2CCN(CCCc3ccccc3)C(CCO)C2)ccc1OC` (stereo not drawn) as the compound, how does the Potency read?
Answer: inactive

Question: Which Potency does the source give for `CCCCOCCCNC(=O)CN1C(=O)c2ccccc2C1=O` here?
Answer: inactive

Question: For `Cn1cccc1-c1nc2ccc([N+](=O)[O-])cc2[nH]1`, which Potency is on record?
Answer: inconclusive: 6.51 µM [activator, partial curve]

Question: For `Cc1ccccc1-c1nnc(-c2ccc(Br)cc2)o1`, which Potency is on record?
Answer: inconclusive: 11.6 µM [activator, partial curve]

Question: For `CCCn1c(N)c(C(=O)CSc2n[nH]c(-c3ccc(C)cc3)n2)c(=O)[nH]c1=O`, which Potency is on record?
Answer: inactive

Question: Which Potency does the source give for `Cc1cccc(SC2CCN(Cc3nc(CC4CC4)no3)CC2)c1` here?
Answer: inconclusive: 29.1 µM [inhibitor, single point]

Question: For `C=CCn1c(NC(=O)c2ccc(Br)o2)c(S(=O)(=O)c2ccccc2)c2nc3ccccc3nc21`, which Potency is on record?
Answer: inconclusive: 29.1 µM [inhibitor, single point]

Question: With `N#Cc1ccc(-n2nccc2-c2cnc3n(c2=O)CCS3)cc1` as the compound, how does the Potency read?
Answer: inactive

Question: For `CCOC(=O)C1=c2s/c(=C\c3cccnc3)c(=O)n2C(N)=C(C(=O)OC)C1c1cccnc1` (stereo not drawn), which Potency is on record?
Answer: inconclusive: 1.64 µM [inhibitor, partial curve]

Question: Which Potency does the source give for `CSc1ccc2[nH]c(=O)cc(C)c2c1` here?
Answer: inconclusive: 16.4 µM [activator, single point]

Question: With `CC(NC(=O)c1ccc(F)cc1Cl)C1CC2CCC1C2` (stereo not drawn) as the compound, how does the Potency read?
Answer: inconclusive: 29.1 µM [activator, single point]

Question: With `CCCc1c(C(=O)Nc2cc(C(C)(C)C)on2)cnn1-c1ccccc1` as the compound, how does the Potency read?
Answer: inconclusive: 23.1 µM [inhibitor, single point]

Question: Which Potency does the source give for `CS(=O)(=O)c1nc(-c2ccccc2)cc(C(F)(F)F)n1` here?
Answer: inconclusive: 29.1 µM [inhibitor, single point]

Question: With `Cc1cc(NC(=S)N(CCN2CCOCC2)Cc2ccccc2F)ccc1Cl` as the compound, how does the Potency read?
Answer: inconclusive: 20.6 µM [inhibitor, single point]

Question: For `COc1ccc(C2CC(O)(C(C)(C)O)NO2)cc1` (stereo not drawn), which Potency is on record?
Answer: inconclusive: 20.6 µM [activator, single point]

Question: For `COC(=O)Cn1c(CN2CCc3ccccc3C2)nc2c1c(=O)n(C)c(=O)n2C`, which Potency is on record?
Answer: inactive

Question: Which Potency does the source give for `CCN(CC)c1ccc(/C=N/NC(=O)Nc2nonc2N)cc1` here?
Answer: inconclusive: 18.4 µM [activator, partial curve]

Question: Which Potency does the source give for `CCOC(=O)C1=C(C)NC(C)=C(C(=O)OCC)C1c1cc(N)ccc1OC(F)F` here?
Answer: inconclusive: 6.51 µM [inhibitor, single point]

Question: For `Oc1ccccc1-c1nnc(-c2ccc(C(F)(F)F)cc2)o1`, which Potency is on record?
Answer: inconclusive: 29.1 µM [activator, single point]

Question: For `NNC(=O)c1sccc1OCc1cccc(C(F)(F)F)c1`, which Potency is on record?
Answer: inconclusive: 9.2 µM [inhibitor, partial curve]

Question: For `CC(=O)c1c(C)[nH]c(C(=O)COc2ccc3ccc(=O)oc3c2)c1C`, which Potency is on record?
Answer: inconclusive: 29.1 µM [inhibitor, single point]

Question: Which Potency does the source give for `Cc1cc(C(=O)CSc2nnc(-c3cccnc3)n2-c2ccccc2F)c(C)n1CC1CCCO1` (stereo not drawn) here?
Answer: inconclusive: 23.1 µM [inhibitor, partial curve, poor fit]

Question: With `Cc1ccc(S(=O)(=O)CCC(=O)OC(C)C(=O)N2CCc3ccccc32)cc1` (stereo not drawn) as the compound, how does the Potency read?
Answer: inactive

Question: Which Potency does the source give for `CC(Oc1ccc(Br)cc1)C(=O)Nc1cc(Cl)ccc1N1CCN(C)CC1` (stereo not drawn) here?
Answer: inactive

Question: Which Potency does the source give for `CN(C)S(=O)(=O)c1cccc(NC(=O)C2Cc3ccccc3CN2C(=O)c2ccccc2)c1` (stereo not drawn) here?
Answer: inconclusive: 16.4 µM [activator, partial curve, poor fit]

Question: Which Potency does the source give for `CCCn1nc(NC(=O)c2cccs2)c2cc3cc(C)ccc3nc21` here?
Answer: inconclusive: 20.6 µM [inhibitor, single point]

Question: For `Cc1ccc(C(C)CCN2CCC(n3nccc3NC(=O)c3ccccc3)CC2)o1` (stereo not drawn), which Potency is on record?
Answer: inconclusive: 29.1 µM [activator, single point]

Question: Which Potency does the source give for `Cc1nc(-c2cn[nH]c2-c2ccc(O)cc2O)cs1` here?
Answer: inactive

Question: Which Potency does the source give for `O=C(N/N=C/C=C\c1cccc([N+](=O)[O-])c1)c1cccnc1` here?
Answer: inconclusive: 29.1 µM [inhibitor, single point]

Question: For `O=C(c1ccccc1)c1ccc(OCC(O)CNCc2cccc(Cl)c2)cc1` (stereo not drawn), which Potency is on record?
Answer: inactive
